Experimental data as given in PubChem BioAssay AID493014 (National Center for Advancing Translational Sciences (NCATS), 2011).
Some of the results follow. Shown are side measurements of this screen, not its main read-out; they come without a call. The list favours compounds with an active or inconclusive main result. Potencies come from curve fits of mixed quality, noted in brackets.

Experiment: qHTS Assay to Find Inhibitors of Chronic Active B-Cell Receptor Signaling
Conditions: ABC-DLBCL IkBa-CBG/CBR reporter, luminescence ratio (green luciferase fused to IkBa over red control in TMD8 lymphoma cells), 4 h
In short: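 TMD8 ABC-DLBCL cells carrying doxycycline-inducible green luciferase fused to IkappaBalpha plus unfused red luciferase were exposed to compounds (up to 46 uM) for 4 hrs at 37C. Activity came from the overlap-corrected green/red luminescence ratio.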

[1] = measured here: CBR red luminescence, cell number
[2] = measured here: IkBa-CBG green luminescence

Compound	AC50 [1]	AC50 [2]
O=C(c1cc2cc(Br)ccc2oc1=O)N1CCN(c2ccccn2)CC1	35.5 µM [rising, single point]	
CCOC(=O)N1CCC(N2Cc3cccc(C(=O)Nc4ccc(F)cc4)c3C2=O)CC1	0.112 µM [falling, full curve, poor fit]	
COc1ccc(-c2noc(CCC(=O)NCCCN3CCC(Cc4ccccc4)CC3)n2)cc1	16.4 µM [falling, single point]	
COC(=O)c1c(NC(=O)c2ccccc2)sc(Cc2ccccc2)c1C	23.1 µM [rising, single point]	
C(=N\Nc1nncc2ccccc12)/c1ccccn1	10 µM [falling, partial curve]	
COc1cccc(/C=C2\SC(=O)N(CC(=O)NCCCn3ccnc3)C2=O)c1	15.8 µM [falling, single point]	
COc1ccc(C(=O)c2c3ccc(C(F)(F)F)cc3[n+]([O-])n2CCCC(N)=O)cc1	14.6 µM [rising, partial curve, poor fit]	
CCOC(=O)C1CCN(C(=O)CSc2cc(=O)n(CC)c3ccccc23)CC1		20.6 µM [falling, partial curve, poor fit]
O=S(=O)(c1cccc(-c2n[nH]c(=S)n2Cc2ccccc2)c1)N1CCOCC1	35.5 µM [rising, single point]	
C=CCOc1c(Br)cc(/C=C2/NC(=S)N(C(C)=O)C2=O)cc1OC	14.1 µM [rising, single point]	
Cc1ccc(/C=C/c2nc3sc(C(=O)O)c(C)c3c(=O)[nH]2)cc1[N+](=O)[O-]	0.355 µM [falling, full curve, poor fit]	
CCOc1ccc(C2=Nn3c(nnc3-c3ccccc3OC)SC2)cc1		0.282 µM [falling, full curve]
O=C(C1CC1)N1CCc2sccc2C1c1ccc(Cl)cc1 (stereo unspecified)	5.62 µM [rising, single point]	
CC(c1cccnc1)N(CCN(C)C)C(=O)Nc1ccc(Cl)cc1 (stereo unspecified)	4.11 µM [rising, full curve, poor fit]	
COc1ccc(Cl)cc1C(=O)Nc1ccc(NC(=O)c2ccco2)cc1	5.17 µM [rising, partial curve, poor fit]	
COc1ccc2nc3ccccc3nc2c1N	11.2 µM [falling, partial curve, poor fit]	11.2 µM [rising, partial curve, poor fit]
C[C@@H]1[C@H]2CCCC[C@H]2CN(C(=O)OC(C)(C)C)[C@@H]1c1cn(Cc2ccccc2)c2ccc(F)cc12	29.1 µM [rising, single point]	18.4 µM [falling, single point]
COC(=O)c1ccc(CSc2nc3ccccc3s2)o1	8.2 µM [rising, partial curve, poor fit]	
COc1ccc(C(=O)Nc2c(Cl)cc(Cl)cc2C(=O)N2CCC(C)CC2)cc1	4.11 µM [rising, full curve]	
O=S(=O)(NCCc1ccccc1)c1ccc(Br)cc1	17.8 µM [rising, partial curve, poor fit]	
O=C(COC(=O)c1ccc(O)cc1)Nc1ccc(Cl)cc1	25.1 µM [falling, single point]	

Random excerpt: four records from the list, in no set order.
Compound	AC50 [1]	AC50 [2]
C[C@@H]1[C@H]2CCCC[C@H]2CN(C(=O)OC(C)(C)C)[C@@H]1c1cn(Cc2ccccc2)c2ccc(F)cc12	29.1 µM [rising, single point]	18.4 µM [falling, single point]
O=C(C1CC1)N1CCc2sccc2C1c1ccc(Cl)cc1 (stereo unspecified)	5.62 µM [rising, single point]	
COc1ccc(C(=O)c2c3ccc(C(F)(F)F)cc3[n+]([O-])n2CCCC(N)=O)cc1	14.6 µM [rising, partial curve, poor fit]	
C=CCOc1c(Br)cc(/C=C2/NC(=S)N(C(C)=O)C2=O)cc1OC	14.1 µM [rising, single point]	

Next part

Compound	AC50 [1]	AC50 [2]
Cc1ccc(-n2nc(C)c(C(=O)Nc3cccc(C(=O)NC4CC4)c3)n2)c(C)c1	20.6 µM [falling, partial curve]	
CCn1c(=N)n(CC(=O)c2ccc(OC)c(OC)c2)c2ccccc21	0.082 µM [rising, full curve, poor fit]	
Cc1c(C(=O)N2CCN(c3ccc(F)cc3)CC2)sc2ncnc(N3CCN(c4ccccn4)CC3)c12	25.1 µM [falling, single point]	
Cc1ccc(/C=N/n2c(-c3ccccc3)n[nH]c2=S)cc1	20 µM [rising, partial curve, poor fit]	
NC(=O)c1ccsc1NC(=O)COC(=O)Cc1ccsc1	29.1 µM [falling, single point]	
CC(=O)Nc1c(-c2ccccc2)nc2ncccn12	18.4 µM [falling, partial curve, poor fit]	
CCOc1ccc(NC(=O)CC2C(=O)N(c3cccc(OC)c3)C(=O)N2CCOC)cc1 (stereo unspecified)	0.112 µM [falling, full curve, poor fit]	
CC(C)Oc1ccccc1C1CC(=O)Nc2cc3c(cc21)OCO3 (stereo unspecified)	35.5 µM [rising, single point]	15.8 µM [falling, single point]
CCCOc1ccc(C(=O)Nc2ccc(S(=O)(=O)Nc3onc(C)c3C)cc2)cc1	35.5 µM [falling, single point]	
O=C(c1ccccc1)c1nccc2ccccc12	16.4 µM [rising, partial curve, poor fit]	
Cc1noc(C)c1COC(=O)CCc1nc2ccccc2c(=O)[nH]1	11.2 µM [falling, partial curve]	
COc1ccc(CNCCS(=O)(=O)NC2CCCC2)cc1	4.11 µM [rising, single point]	
CNC(=O)C12N=CNN=C1N(C)C(=O)N2C (stereo unspecified)	11.2 µM [rising, partial curve]	
CCOc1cccc(OCCOc2ccccc2[N+](=O)[O-])c1	6.31 µM [rising, full curve, poor fit]	
COc1cc2c(cc1OC)C(C1C(=O)CC(C)CC1=O)N(C(=O)CCl)CC2 (stereo unspecified)	18.4 µM [rising, single point]	
CCCCCCc1ccc(-c2ncc(N)cn2)cc1	0.651 µM [rising, partial curve, poor fit]	
COc1ccc(S(=O)(=O)NC(CC(=O)NCc2ccco2)C(C)C)cc1 (stereo unspecified)	29.1 µM [rising, single point]	
Cc1ccc(S(=O)(=O)N2CCN(C(=O)c3ccc(-n4cncn4)c([N+](=O)[O-])c3)CC2)cc1C	23.1 µM [falling, partial curve, poor fit]	20.6 µM [rising, partial curve, poor fit]
COC(=O)/C=C1\N/C(=N\c2nc(C)cc(C)n2)N(c2ccc(Cl)cc2)C1=O	7.94 µM [falling, partial curve, poor fit]	
CN1C(C(=O)NCc2ccco2)=CC(c2ccc(F)cc2)=NS1(=O)=O	10 µM [falling, partial curve]	
Fc1ccccc1NC(=S)N1CCN(c2ccccn2)CC1	2.59 µM [rising, full curve]	

Compound	AC50 [1]	AC50 [2]
COc1ccc(C(=O)Nc2cccc(-c3ccc(N4CCOCC4)nn3)c2)cc1OC	20.6 µM [falling, single point]	
Cc1cccc(C)c1N(CC(=O)NCc1ccco1)C(=O)CNS(=O)(=O)c1ccc(F)cc1	35.5 µM [falling, partial curve, poor fit]	
CC(=O)c1ccccc1NC(=O)COC(=O)CCCN1C(=O)c2cccc3cccc(c23)C1=O	29.1 µM [rising, single point]	
Clc1cccc(-n2ncc3c(Nc4ccc5c(c4)OCCO5)ncnc32)c1	5.62 µM [falling, full curve, poor fit]	
COC(=O)c1ccc(NC(=S)NC2CC3CCC2C3)cc1 (stereo unspecified)	6.51 µM [rising, single point]	
Cc1c(C(=O)Nc2c(F)cccc2F)sc2ncn(CC(=O)N3CCCCC3)c(=O)c12	7.94 µM [falling, partial curve, poor fit]	
Cc1ccccc1C(=O)NCC(=O)NNC(=O)c1cccc(Cl)c1	6.51 µM [rising, single point]	
O=C(CCCc1ccccc1)Nc1ccnn1C1CCN(Cc2ccccc2)CC1	2.82 µM [rising, partial curve, poor fit]	
CC(=O)Nc1ccc2nc(NC(=O)c3ccc([N+](=O)[O-])o3)sc2c1	3.55 µM [falling, single point]	
O=C1Nc2ccccc2/C1=N\c1sc2c(c1C(=O)Nc1ccccc1)CCCC2	5.17 µM [falling, full curve]	
Cc1[nH]n(-c2ccc(F)cc2)c(=O)c1C=Nc1ccc(S(=O)(=O)N(C)C)cc1	7.31 µM [falling, partial curve, poor fit]	
COCCNC(=O)C(c1ccc(C)cc1)N(C(=O)CCC(=O)Nc1ccccn1)C1CCCCC1 (stereo unspecified)	35.5 µM [rising, single point]	
Cc1cccc(CCNC(=O)CCCOc2cc(=O)n(C)c3ccccc23)c1	31.6 µM [rising, partial curve, poor fit]	
COc1ccc(OC)c(NC(=O)c2c(NCc3ccc(N(C)C)cc3)sc3c2CCCC3)c1	7.08 µM [rising, full curve]	
O=C(Nc1nc2c(Cl)cccc2s1)c1ccc(Br)o1	4.11 µM [falling, partial curve, poor fit]	
COc1ccc(OCC(=O)NCCNC(=O)c2cccnc2)cc1	3.55 µM [falling, single point]	
Cc1ccc(S(=O)(=O)N2CCC(C(=O)OC(C)C(=O)NC(N)=O)CC2)cc1C (stereo unspecified)	0.708 µM [falling, partial curve, poor fit]	
C=CCOc1ccc(Br)cc1/C=N/O	7.31 µM [rising, partial curve, poor fit]	
Cc1ccc([N+](=O)[O-])cc1NC(=O)Cc1cccs1	35.5 µM [falling, single point]	
CS(=O)(=O)Nc1ccccc1C(=O)Nc1cccc(Cl)c1	16.4 µM [falling, single point]	
